Experimental data from PubChem BioAssay AID901 (National Center for Advancing Translational Sciences (NCATS), 2007).
Some of the results follow. The main result of the screen is listed elsewhere. These columns were measured beside it and carry no call. Compounds called inactive in the main read-out are mostly missing here. Potencies come from curve fits of mixed quality, noted in brackets.

Assay: qHTS Assay for Identifying the Cell-Membrane Permeable IMPase Inhibitors
Details: CHO-M1 cells, IP1 accumulation, HTRF TR-FRET ratio; measured here: donor channel 620 nm AC50

Row | Structure (SMILES) | AC50
1 | COc1cc2cc(CN(Cc3nnnn3Cc3ccco3)C3CCCCC3)c(=O)[nH]c2cc1OC | 35.5 µM [rising, single point]
2 | Cc1oc2nc(SCC(=O)NCCCO)nc(N)c2c1C | 0.251 µM [falling, full curve]
3 | N#Cc1nc(N2CCOCC2)nc(N2CCOCC2)n1 | 1 µM [falling, full curve, poor fit]
4 | Cc1[nH]c(C(=O)N/N=C/c2ccc(C(=O)O)cc2)c(C)c1C(=O)N/N=C/c1ccc(C(=O)O)cc1 | 11.2 µM [falling, single point]
5 | CCn1nnc(NC(=O)CSc2ccc(Cl)cc2)n1 | 2 µM [falling, full curve, poor fit]
6 | O=C(C1CCN(c2nnc(-n3cccc3)s2)CC1)N1CCN(c2cccc(C(F)(F)F)c2)CC1 | 31.6 µM [rising, single point]
7 | COc1cccc(NC(=O)CSc2nc(N)cc(N)n2)c1 | 35.5 µM [falling, single point]
8 | O=C(NCCCCNC(=O)c1ccc(Cl)s1)c1ccc(Cl)s1 | 0.501 µM [falling, full curve]
9 | CCc1nnc(NC(=O)c2ccc(S(=O)(=O)N(CC)Cc3ccccc3)cc2)o1 | 0.0126 µM [falling, full curve]
10 | CCCN1C=CC(=C/C=C(\C#N)C(=O)OCC)C=C1 | 31.6 µM [falling, single point]
11 | CC(=O)Nc1cccc(N(C)S(C)(=O)=O)c1 | 5.62 µM [rising, single point]
12 | CCCCOc1ccc(C2(C(=O)O)CCCC2)cc1 | 0.0398 µM [falling, full curve, poor fit]
13 | C/C(Cl)=C/Cn1c(SCC(C)C)nc2c1c(=O)[nH]c(=O)n2C | 25.1 µM [rising, single point]
14 | CCOCCCn1c(SCC(=O)NC(C)C)nc2ccccc2c1=O | 5.01 µM [rising, single point]
15 | Cc1ccn2c(C(=O)N/N=C\c3ccc4c(c3)OCO4)c(C)nc2c1 | 11.2 µM [falling, partial curve]
16 | O=C(c1cccc(Cl)c1)N1CCN(C(=O)c2ccco2)CC1 | 3.16 µM [falling, partial curve]
17 | N#CC1=C(N2CCCCC2)c2cc3c(n2C1=O)CCCC3 | 3.98 µM [falling, full curve]
18 | Cc1ccc(NC2=NCC(=O)N2C2CCCC2)c(C)c1 | 5.01 µM [falling, single point]
19 | Cc1cc(C)cc(OCC(=O)Nc2ccc(N3CCN(S(C)(=O)=O)CC3)cc2)c1 | 6.31 µM [rising, full curve]
20 | COC(=O)CSc1nnc(CNC(=O)c2cc(OC)c(OC)c(OC)c2)n1C | 0.501 µM [rising, full curve]
21 | CC(C)(CO)Nc1ccc([N+](=O)[O-])cc1[N+](=O)[O-] | 12.6 µM [falling, single point]
22 | COc1cccc(-c2cc3c(=O)n(-c4ccccc4)c(=S)[nH]c3s2)c1 | 20 µM [rising, partial curve]
23 | N#Cc1c(Cl)nc(SCc2ccccc2)nc1-c1ccccc1 | 15.8 µM [rising, single point]

A few values from above.
For AC50, CC(C)(CO)Nc1ccc([N+](=O)[O-])cc1[N+](=O)[O-] has the entry 12.6 µM [falling, single point]
For AC50, O=C(C1CCN(c2nnc(-n3cccc3)s2)CC1)N1CCN(c2cccc(C(F)(F)F)c2)CC1 has the entry 31.6 µM [rising, single point]

Continued.

Row | Structure (SMILES) | AC50
24 | CCCCOC(=O)Nc1cccc(Cl)c1C | 5.01 µM [falling, single point]
25 | O=C1CN(C(=O)COC(=O)C2=COCCO2)c2ccccc2N1 | 2.51 µM [rising, full curve, poor fit]
26 | O=C(CSc1nc2ccccc2o1)NCC(=O)c1ccccc1 | 12.6 µM [rising, single point]
27 | O=C(O)CCNc1ccc2c(c1)OCCO2 | 7.94 µM [falling, partial curve]
28 | COc1cc(/C=C(\C#N)c2nc3ccccc3[nH]2)ccc1OCc1ccccc1F | 35.5 µM [rising, single point]
29 | CCOc1ncccc1C(=O)OCc1nnc(-c2ccccc2)o1 | 0.01 µM [rising, full curve, poor fit]
30 | CN(C(=O)COc1ccccc1)c1nnc(-c2cccnc2)s1 | 6.31 µM [falling, single point]
31 | COc1ccc(-c2n[nH]c(C)c2-c2cnn(-c3ccccc3)c2)c(O)c1 | 31.6 µM [falling, single point]
32 | Cc1cc(C)c2c(=O)[nH]c(SCC(=O)NCCc3ccccc3)nc2n1 | 35.5 µM [rising, single point]
33 | Cc1cc(C)[n+](-c2ccc(F)cc2)c2[nH]c(=O)[nH]c(=O)c12 | 10 µM [rising, partial curve]
34 | CCN1CCc2nc(NC(=O)c3ccccc3)sc2C1 | 4.47 µM [rising, single point]
35 | NNC(=O)C1CC1c1ccccc1 (stereo not given) | 0.631 µM [falling, partial curve, poor fit]
36 | Cc1cc(C)c(NC(=O)CN2C(=O)NC3(CCOc4ccccc43)C2=O)c(C)c1 (stereo not given) | 5.01 µM [falling, single point]
37 | CC1CN(S(=O)(=O)c2ccccc2)CC(C)O1 (stereo not given) | 0.708 µM [falling, full curve, poor fit]
38 | Cc1cc2c(cc1C)CSC(c1ccccc1OC(=O)C(C)C)SC2 | 10 µM [falling, partial curve]
39 | CCOC(=O)N1CCN(C(=O)c2cc3c(s2)-c2ccccc2OC3)CC1 | 0.0178 µM [rising, full curve, poor fit]
40 | O=C(NCc1ccccc1)c1cccc(COc2cccc(Cl)c2)c1 | 6.31 µM [rising, single point]
41 | C/C(=N/NC(N)=S)c1ccccc1[N+](=O)[O-] | 0.398 µM [rising, full curve, poor fit]
42 | C/[N+]([O-])=C1\Cc2ccccc2C1=O | 15.8 µM [falling, partial curve]
43 | c1ccc(Oc2cccc(CN3CCOCC3)c2)cc1 | 12.6 µM [rising, partial curve, poor fit]
44 | COCC(=O)NCCc1nc(-c2ccccc2)cs1 | 0.398 µM [falling, partial curve, poor fit]
45 | CCC1Oc2ccc(C)cc2N(CC(=O)N(Cc2ccncc2)Cc2ccco2)C1=O (stereo not given) | 25.1 µM [falling, single point]
